Measurements reported in the supplement of paper PMC5949888.
Most values lie at the floor of the assay. Slopes are relative: functional sequences can read slightly below zero.

system: Saccharomyces cerevisiae PS128 hsf1 delta, HSF1(1-493) fusion; experiment: growth estimate (transactivation domain function in HSF1 fusion, heat-shock survival) (a.u. (slope of normalised read count over time)); higher = stronger growth at 37°C, i.e. more transactivation activity; settings: library: random library
Description: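 Random 60-nt DNA library encoding peptides of up to 20 aa, fused to the C-terminus of yeast HSF1 residues 1-493 (C-terminal TAD deleted) and expressed from the native HSF1 promoter on a CEN plasmid in hsf1-deleted S. cerevisiae PS128. Cells were selected at 37°C on -trp 5-FOA plates for 0, 2, 4, 6 and 8 days and amplicons were sequenced. Growth estimate is the slope of a robust linear fit of total-sum-normalised read counts (normalised to the first time point) over time, using at least 2 replicates. Sequences are classed functional (TAD activity) above a threshold of -0.13, set from stop-codon control sequences.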

Row | Substance | growth estimate
1 | QMGCSEPAGRGEALYPVE | < -0.25
2 | YAINKLPRCS | < -0.25
3 | FLRRVVGHQAPIALGSKYWL | < -0.25
4 | GRLVAPP | < -0.25
5 | LDPIPFHEGFLRQRRELVKF | < -0.25
6 | RSWVRA | < -0.25
7 | DGLVCLLLRSHIIRLSLKRG | < -0.25
8 | RSPARSVCANRKTYFVLRHN | < -0.25
9 | LGREAASGRRDFLCFLGDSK | < -0.25
10 | LEKGAVQRVVRPGPMFDSNS | < -0.25
11 | RYKLKNWVTWHAQDSPRGSR | < -0.25
12 | VAG | < -0.25
13 | TTRSSPTQGG | < -0.25
14 | RDGDLGGRADAWVRMA | < -0.25
15 | RLRGHHAKALTR | < -0.25
16 | GCPGAGRSL | < -0.25
17 | RCRARGAIVPFIARRENAGT | < -0.25
18 | RWKLDRRYALV | < -0.25
19 | ERVSESRVKSRDVVGVLHSP | < -0.25
20 | FRR | < -0.25
21 | CFVTIAGLITCFVTTQETFG | < -0.25
22 | KSLID | < -0.25
23 | DRRVLACKGFPPTHSKRISL | < -0.25
24 | ERVGRRIGRGNQRASS | < -0.25

Quoted at random: 7 records from the list.
Row | Substance | growth estimate
21 | CFVTIAGLITCFVTTQETFG | < -0.25
14 | RDGDLGGRADAWVRMA | < -0.25
4 | GRLVAPP | < -0.25
12 | VAG | < -0.25
23 | DRRVLACKGFPPTHSKRISL | < -0.25
9 | LGREAASGRRDFLCFLGDSK | < -0.25
6 | RSWVRA | < -0.25

(further entries)

Row | Substance | growth estimate
25 | WTTSLS | < -0.25
26 | VGGIDLRMRCSLYLPN | < -0.25
27 | IRTHSDYEALETSSGQSTAN | < -0.25
28 | VPIALMIHWEQPDLLNGESG | < -0.25
29 | SKTSEVSGLLWCPATMTSIF | < -0.25
30 | LQGLVLQPVRRMVLPQGIRP | < -0.25
31 | GRGWRTTMRKGWTPPPVERG | < -0.25
32 | AMWL | < -0.25
33 | SFT | < -0.25
34 | KKIGE | < -0.25
35 | QYQLRGDGPVQQCVR | < -0.25
36 | LRKNCSACRGHRIFDRRHRQ | -0.248
37 | RTGMWMLSH | < -0.25
38 | PPRPVQFWECGYRMVV | < -0.253
39 | WEATGISSGLVSVY | -0.231
40 | VLFSLRSNPSPLGKVT | < -0.25
41 | HSMYGIHSVGWAHGAQTGCA | < -0.25
42 | LLCTIIGLAKDSAEAQRLEL | -0.173
43 | ASASRMAVWTVLSYILPD | < -0.25
44 | GLFLRGNM | < -0.25
45 | ECGSRRVRSSGDI | < -0.25
46 | GYDNIVEFS | 0.0712
47 | GWIENTGPGRKSAGGPLTLS | < -0.25
48 | GIKIARTSIRVNLRSRCWQR | -0.235

Row | Substance | growth estimate
49 | RFVLYGLLIWLGESCGAFPA | < -0.25
50 | PNHSCAKCADTRPGIITFRT | < -0.25
51 | GRKRSLLGVKKG | < -0.25
52 | HLIGV | < -0.25
53 | KQSRKVVSASLVWCM | < -0.25
54 | QQLAALS | < -0.25
55 | HRTMSEQCV | < -0.25
56 | AALYSGGRQVTL | < -0.25
57 | RSFQVINVSNRYAGAPETAG | < -0.25
58 | CVSLEFGRLHLQQQFDLWSS | -0.0287
59 | RHCLRQHCEFSLGRLLSNYR | < -0.25
60 | RFAPIVTSYP | < -0.25
61 | DLPYGVVNEPVS | < -0.25
62 | WVCG | < -0.25
63 | HRDRHRSHLSHRMPQCYHIR | < -0.25
64 | SPEPDPVPRLRVVEDGATLG | < -0.25
65 | GLKSLRE | < -0.25
66 | RPMRMMRDRGDVLPRSRLRE | < -0.25
67 | STK | < -0.25
68 | LGGKHSEDLLVAEPE | < -0.25
69 | VGA | < -0.25
70 | RSD | < -0.25
71 | LAISNVEWNHETVHQGCYDL | < -0.25
72 | SVDFKKGACSSMGVQVYLFS | < -0.25

Row | Substance | growth estimate
73 | VVMGAGA | -0.248
74 | LWGIGSGLYSGRMPYGTRIG | < -0.25
75 | AGQTAGGSFRVKMGCDIAAR | < -0.25
76 | FVKQFRHQCQAEDVTCRRRT | < -0.25
77 | IATCADAALAVANSTFVFCL | < -0.25
78 | HSVHH | < -0.25
79 | VSVHACLGTHSQGPITG | < -0.25
80 | NRGFGKFYTRISGAVLTDRT | < -0.25
81 | VASWPHSGAPSSIHTSACQG | < -0.25
82 | SYKGGFFQRIPNKESRLSAT | < -0.25
83 | RAKLCKRFGEARNIARQNVH | < -0.25
84 | RVVAGGPLLV | < -0.25
85 | TDWVMASHSVNCSMEVYCSC | < -0.25
86 | PTANDHQRTGRGPPLYWLHP | < -0.25
87 | SRLRRVSGGATLARTRTAYI | < -0.25
88 | IRVGMTVKSAAHQWD | < -0.25
89 | LRKQGTLADEKCIFR | < -0.25
90 | SRWPGDTLTTAYLITVYPSV | < -0.25
91 | NEHVGTGILCLRGTGFSSVT | < -0.25
92 | FTYRRLIVLSGRYQHSLRRN | < -0.25
93 | VTS | < -0.25
94 | RSAYGIAAERPCAGCTGRKQ | < -0.25
95 | RVTRLFMSWTPYVDGFTFQT | < -0.25
